Data as given in PubChem BioAssay AID1259254 (NCATS, 2017)
In all, the deposit lists about 59,000 reagents; below is a part drawn at random. Of all reagents, about 1,550 (2.6%) were called active. 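G2 share is only a proxy for re-replication; each gene was hit by three separate siRNAs, and active genes were retested.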 Raw values vary from plate to plate and are shown uncorrected. Reagents against one gene are numbered here. Not given: the amount of reagent.

Assay: 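Genome-wide screen for genes that prevent DNA re-replication in cancer cells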 (primary screen)
Cells: human HCT116 colorectal cancer cells
Reagent: single siRNA against human genes
Duration: 3 days
Read-out: 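Imaged Hoechst DNA stain sorts each cell into a cycle phase by DNA amount; per plate, G2 fraction set to 0% for non-targeting and 100% for GMNN siRNA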
Reading the numbers: G2 robust z-score and G2 cells, % of GMNN control: higher = more G2 cells, more excess DNA replication; raw share of cells in G2: higher = larger share of cells with G2 DNA content
Hit rule: 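Active siRNAs have a G2 robust z of 5 or more median absolute deviations over the median, which in these data means about 38% or higher of GMNN control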

G2 robust z-score | G2 cells, % of GMNN control | raw share of cells in G2 (%) | outcome | gene symbol | reagent
0.175 | 4.2 | 5.34 | inactive | APOBEC4 | 1
-0.186 | 1.66 | 4.18 | inactive | APOBEC4 | 2
-0.494 | -0.508 | 4.58 | inactive | APOBEC4 | 3
4.19 | 32.5 | 18.8 | inactive | RPL30 | 1
3.15 | 25.1 | 14.1 | inactive | RPL30 | 2
3.3 | 26.2 | 12.8 | inactive | RPL30 | 3
3.05 | 24.4 | 17.2 | inactive | ZNF451 | 1
-0.685 | -1.85 | 3.57 | inactive | ZNF451 | 2
1.06 | 10.4 | 7.41 | inactive | ZNF451 | 3
-0.00383 | 2.94 | 5.51 | inactive | DLGAP3 | 1
4.46 | 34.4 | 20.9 | inactive | DLGAP3 | 2
0.642 | 7.48 | 5.4 | inactive | DLGAP3 | 3
-0.0907 | 2.33 | 6.38 | inactive | EPHB1 | 1
0.425 | 5.96 | 7.42 | inactive | EPHB1 | 2
-0.988 | -3.98 | 2.62 | inactive | EPHB1 | 3
0.194 | 4.33 | 6.58 | inactive | CDH15 | 1
-0.631 | -1.47 | 3.59 | inactive | CDH15 | 2
-1.2 | -5.44 | 3.02 | inactive | CDH15 | 3
0.106 | 3.72 | 5.66 | inactive | ANKRD44 | 1
3.06 | 24.5 | 10.7 | inactive | ANKRD44 | 2
0.377 | 5.62 | 4.71 | inactive | ANKRD44 | 3
2 | 17.1 | 9.36 | inactive | CYP46A1 | 1
3.57 | 28.1 | 17.6 | inactive | CYP46A1 | 2
0.634 | 7.43 | 8.92 | inactive | CYP46A1 | 3
0.173 | 4.19 | 5.33 | inactive | LINC01011 | 1
-0.31 | 0.787 | 3.83 | inactive | LINC01011 | 2
-1.03 | -4.28 | 3.02 | inactive | LINC01011 | 3
0.307 | 5.13 | 7.16 | inactive | ITPR3 | 1
-0.277 | 1.02 | 5.13 | inactive | ITPR3 | 2
0.686 | 7.79 | 7.42 | inactive | ITPR3 | 3
0.828 | 8.79 | 6.85 | inactive | C1orf185 | 1
6.38 | 47.9 | 21.6 | active | C1orf185 | 2
1.09 | 10.7 | 6.51 | inactive | C1orf185 | 3
-1.34 | -6.44 | 1.31 | inactive | HARBI1 | 1
-0.254 | 1.18 | 4.07 | inactive | HARBI1 | 2
0.515 | 6.59 | 5.59 | inactive | HARBI1 | 3

Individual results from above.
RPL30 #1, outcome = inactive
Under “G2 robust z-score”, ITPR3 #1 is entered as 0.307
For “outcome”, APOBEC4 #1 shows inactive

Next entries follow.
G2 robust z-score | G2 cells, % of GMNN control | raw share of cells in G2 (%) | outcome | gene symbol | reagent
0.326 | 5.26 | 6.16 | inactive | ZNF56P | 1
2.68 | 21.8 | 10.6 | inactive | ZNF56P | 2
-0.497 | -0.528 | 2.98 | inactive | ZNF56P | 3
-1.17 | -5.25 | 3.14 | inactive | MNX1 | 1
-1.18 | -5.36 | 3.64 | inactive | MNX1 | 2
-0.205 | 1.53 | 4.76 | inactive | MNX1 | 3
-0.104 | 2.23 | 4.49 | inactive | TNRC18P1 | 1
2.41 | 20 | 10.4 | inactive | TNRC18P1 | 2
0.6 | 7.19 | 5.24 | inactive | TNRC18P1 | 3
-0.813 | -2.75 | 2.91 | inactive | OVOS2P | 1
-0.0747 | 2.44 | 3.67 | inactive | OVOS2P | 2
-0.048 | 2.63 | 3.99 | inactive | OVOS2P | 3
-0.261 | 1.13 | 4.49 | inactive | CDC5L | 1
0.946 | 9.62 | 8.51 | inactive | CDC5L | 2
1.27 | 11.9 | 9.2 | inactive | CDC5L | 3
-0.588 | -1.17 | 2.82 | inactive | DEFB112 | 1
0.425 | 5.96 | 5.74 | inactive | DEFB112 | 2
-0.263 | 1.12 | 3.51 | inactive | DEFB112 | 3
-0.0584 | 2.56 | 5.19 | inactive | COPZ2 | 1
-1.25 | -5.86 | 1.55 | inactive | COPZ2 | 2
-0.889 | -3.29 | 4.46 | inactive | COPZ2 | 3
-0.422 | -0.00167 | 3.58 | inactive | GAPT | 1
1.02 | 10.1 | 6.6 | inactive | GAPT | 2
0.0885 | 3.59 | 4.34 | inactive | GAPT | 3
-1.2 | -5.47 | 4.03 | inactive | CTPS2 | 1
-0.162 | 1.83 | 5.09 | inactive | CTPS2 | 2
-0.827 | -2.85 | 3.15 | inactive | CTPS2 | 3
0.509 | 6.55 | 6.28 | inactive | PDE4A | 1
-0.184 | 1.67 | 5.34 | inactive | PDE4A | 2
2.31 | 19.2 | 9.29 | inactive | PDE4A | 3
0.0192 | 3.1 | 6.95 | inactive | FZD2 | 1
-1.32 | -6.34 | 2.3 | inactive | FZD2 | 2
-0.759 | -2.37 | 2.54 | inactive | FZD2 | 3
